Data taken from PubChem BioAssay AID912, deposited by NCATS (2007).

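Uptake of anthrax lethal toxin into cultured cells, read by FRET (460/530 nm ratio) and reported from the 460 nm channel; the cell line is not named here. Each compound was tested as a concentration series from about 0.0005 to 40 µM. The number is the fitted AC50 of the 460 nm signal alone; lower values mean a more potent effect. A falling signal goes with compounds filed as inhibitors or cytotoxic, a rising one with activators or fluorescent compounds (inferred from the filed classes).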

Values are in µM. Common to all entries: measured here: 460 nm channel. Part of the compounds only, not a random draw; the main read-out is not listed here. Potencies fitted to partial, single-point or poorly fitting curves are rough. The first word of each remark tells which way the curve ran; it can be opposite to the aim of the assay.

compound	AC50 (µM)	curve
COc1cc2c(c(OC)c1OC)-c1ccc(OC)c(=O)cc1[C@H](NC(C)=O)CC2	0.3981	falling, full curve
CC1CC(OC(=O)c2ccccc2O)CC(C)(C)C1 (stereo not given)	15.85	falling, partial curve, poor fit
CCOc1ccc(-c2cc(CCCC(=O)Nc3cccc(OC)c3)no2)cc1	6.31	falling, partial curve
Brc1cccc(-c2nnc(SCc3ccon3)n2-c2ccccc2)c1	31.62	falling, single point
C=C(C)CN1CC[C@@]23c4c5ccc(O)c4O[C@H]2c2[nH]c4ccccc4c2C[C@]3(O)[C@@H]1C5	15.85	falling, partial curve
O=C(c1ccc(COc2ccc3c(c2)CCC3)o1)N1CCN(c2ccccc2)CC1	10	falling, partial curve
COc1cc(C(=O)N(Cc2cc3ccccc3[nH]c2=O)CC2CCCO2)cc(OC)c1OC (stereo not given)	5.012	falling, single point
COc1ccc(-c2cc(N)n(S(=O)(=O)c3c(F)c(F)c(F)c(F)c3F)n2)cc1OC	6.31	falling, partial curve
CC(C)Cc1nc2oc3c(=O)[nH]cnc3c2c2c1CCC2	0.7943	falling, full curve
Cc1cccc(-n2c(SCC(=O)Nc3nnc(C)s3)nnc2-c2ccoc2C)c1	5.012	rising, single point
COc1cccc(Nc2ncc3nc(-c4ccccc4)c(=O)n(C4CC4)c3n2)c1	7.943	rising, partial curve
Cc1ccc(C(=O)CSc2nnc(CNc3ccc(C)cc3C)n2Cc2ccco2)cc1	15.85	rising, partial curve
CS(=O)(=O)c1ncc(Cl)c(C(=O)Nc2ccc(N3CCOCC3)cc2)n1	5.012	falling, partial curve
O=[N+]([O-])C(Br)Br	25.12	falling, partial curve
COc1ccc(CNc2ncnc3ccc(-c4ccc5c(c4)OCO5)cc23)c(OC)c1	5.012	rising, partial curve
C=CCc1ccccc1OCC(O)CN1CCN(c2ccccc2F)CC1 (stereo not given)	5.012	rising, single point
N#C/C=C\Oc1ccc(Cl)cc1N	5.012	rising, single point
CN(C)c1ccc(C(=O)Nc2nc3c(s2)CCCC3)cc1	10	falling, partial curve
Cc1cc(N(C)C)c(C#N)c(NCc2ccccc2)n1	3.981	rising, partial curve
CCC(C)(C)n1nnnc1C(C(C)C)N1CCN(C)CC1 (stereo not given)	15.85	falling, partial curve
O=C(O)Cn1nnnc1-c1ccc(F)cc1	0.1259	falling, full curve, poor fit
CC(C)CNS(=O)(=O)c1ccc(CCC(=O)N2CCN(Cc3ccc4c(c3)OCO4)CC2)cc1	0.3981	falling, single point
Nc1nonc1-c1noc(N2CCCCC2)n1	1.259	falling, partial curve, poor fit
Cc1ccc(OCc2nn3c(-c4n[nH]c5c4CCC5)nnc3s2)cc1	0.1585	rising, full curve, poor fit
Cc1ccc(CN2CCN(CC(=O)N3CCC4(CC3)OCCO4)C2=O)cc1	1.259	rising, partial curve
O=C(OCC(=O)N(C1CCCCC1)C1CCCCC1)c1cnccn1	0.2512	falling, partial curve
O=S(=O)(NC1CCCCC1NS(=O)(=O)c1ccc(F)cc1)c1ccc(F)cc1 (stereo not given)	25.12	rising, single point
Cc1ccc(C)c(N2CCN(C(c3ccncc3)c3nnnn3Cc3ccccc3)CC2)c1 (stereo not given)	25.12	rising, single point
O=C(O)c1ccccc1C(=O)Nc1cc2c(cc1Br)-c1ccccc1C2=O	1	rising, single point
CC1CCC2C(=O)N3C(CCC(C)[C@@H]3c3ccc(Br)cc3)C(=O)N2C1c1ccc(Br)cc1 (stereo not given in full)	5.012	falling, single point
CN(C)c1nc(-c2ccccc2)c2cnn(Cc3ccccc3)c2n1	10	rising, partial curve
N#Cc1c(/N=C/c2cccs2)sc2c1CCCCC2	1	falling, full curve
CCOC(=O)c1ccc(CNC(=O)C(Cc2c[nH]c3ccccc23)NC(C)=O)o1 (stereo not given)	10	rising, single point
COc1ccc(CNc2nc(-c3ccccc3OC)nc3ccccc23)c(OC)c1	15.85	falling, single point
CCC(=O)N1CCc2cc(S(=O)(=O)CCC(=O)Nc3nc(C)cs3)ccc21	10	rising, single point
O=C1CC(C(=O)NC2CCCCC2)C(c2ccccc2)O1 (stereo not given)	0.02512	rising, full curve, poor fit
COc1cccc(Cn2c(=O)c(-c3ccc(F)cc3)nc3cnc(N4CCOCC4)nc32)c1	1	rising, full curve
CCOC(=O)c1c(C)oc2c1c(C=NCc1ccccn1)c(O)c1ccccc12	2.512	falling, single point
C=CCOc1ccccc1C1C2=C(CC(C)(C)CC2=O)Nc2c1c(=O)n(C)c(=O)n2C (stereo not given)	10	rising, single point
CCOC(=O)N1CCN(Cc2nc3c(c(=O)n(C)c(=O)n3C)n2Cc2cccc(C)c2)CC1	3.162	falling, partial curve
COc1ccccc1C(c1nnnn1Cc1ccccc1)N1CCN(c2nc3ccccc3s2)CC1 (stereo not given)	10	falling, single point
O=C1Oc2ccccc2C(=O)/C1=C\N1C(=O)N/C(=C\c2ccccc2O)C1=O	5.012	rising, single point
O=S(=O)(c1ccc2c(c1)OCCO2)N1CCN(c2cccc(Cl)c2)CC1	0.1585	falling, partial curve, poor fit
CCOC(=O)CC(=O)CSC1=C(C#N)C(c2ccccc2OC)CC(=O)N1 (stereo not given)	5.012	rising, partial curve
CCCn1c(-c2ccc(F)cc2)nc2c(NC3CCN(Cc4ccccc4)CC3)nc(C)nc21	15.85	falling, single point
COc1ccc(C[C@@H]2C(=O)N[C@H](C)C(=O)N(C)[C@@H]3C(=O)N(C)[C@@H](Cc4ccc(O)c(c4)Oc4ccc(cc4)[C@H]3O)C(=O)N[C@@H](C)C(=O)N[C@H](C)C(=O)N2C)cc1	5.012	falling, single point
O=C(O)c1cc(S(=O)(=O)N2CCCCC2)ccc1F	5.012	falling, single point
CC(C)(C)c1ccc(OCc2nc(-c3ccccn3)no2)c(Br)c1	12.59	falling, partial curve
Cn1cnnc1SCc1ccc(C(=O)n2ncc(C#N)c2N)cc1	12.59	rising, single point
CCC(C)NC(=O)c1c(N)n(CC2CCCO2)c2nc3ccccc3nc12 (stereo not given)	10	rising, partial curve
COc1ccc(C2C(C#N)=C(/N=C/N3CCN(C)CC3)OC3=C2C(=O)CC(C)(C)C3)cc1 (stereo not given)	5.012	rising, partial curve, poor fit
Cc1ccc(S(=O)(=O)N(Cc2ccccc2)Cc2ccco2)cc1	12.59	falling, partial curve
COc1ccc(CN2CCOCC2)c(C)c1C	25.12	falling, single point
CN(C)CCCNC(=O)c1ccc(-c2ccccc2)cc1	10	rising, single point
CCOC(=O)CC1=CSC2=NS(=O)(=O)CCN12	25.12	rising, single point
CCCn1c(CCc2ccccc2)nnc1SCC(=O)N1CCCC1	12.59	rising, single point
CN(C)S(=O)(=O)Nc1ccc(C(=O)O)cc1	25.12	rising, single point
CCOC(=O)c1c(N)nn(C(=O)C(C)C)c1-c1ccccc1	12.59	falling, partial curve
Cc1cccc(-c2noc(CN(C(C)C)S(=O)(=O)c3ccc(F)cc3)n2)c1	7.943	falling, partial curve
Cn1cc(-c2nc3cnc(Oc4ccccc4)nc3n(Cc3cccs3)c2=O)c2ccccc21	0.3162	rising, full curve

The first 8 entries again:

* COc1cc2c(c(OC)c1OC)-c1ccc(OC)c(=O)cc1[C@H](NC(C)=O)CC2 : AC50 0.3981 µM (falling, full curve)
* CC1CC(OC(=O)c2ccccc2O)CC(C)(C)C1 (stereo not given) : AC50 15.85 µM (falling, partial curve, poor fit)
* CCOc1ccc(-c2cc(CCCC(=O)Nc3cccc(OC)c3)no2)cc1 : AC50 6.31 µM (falling, partial curve)
* Brc1cccc(-c2nnc(SCc3ccon3)n2-c2ccccc2)c1 : AC50 31.62 µM (falling, single point)
* C=C(C)CN1CC[C@@]23c4c5ccc(O)c4O[C@H]2c2[nH]c4ccccc4c2C[C@]3(O)[C@@H]1C5 : AC50 15.85 µM (falling, partial curve)
* O=C(c1ccc(COc2ccc3c(c2)CCC3)o1)N1CCN(c2ccccc2)CC1 : AC50 10 µM (falling, partial curve)
* COc1cc(C(=O)N(Cc2cc3ccccc3[nH]c2=O)CC2CCCO2)cc(OC)c1OC (stereo not given) : AC50 5.012 µM (falling, single point)
* COc1ccc(-c2cc(N)n(S(=O)(=O)c3c(F)c(F)c(F)c(F)c3F)n2)cc1OC : AC50 6.31 µM (falling, partial curve)